The test in a line: qHTS Assay to Find Inhibitors of Chronic Active B-Cell Receptor Signaling. As to conditions: ABC-DLBCL IkBa-CBG/CBR reporter, luminescence ratio (green luciferase fused to IkBa over red control in TMD8 lymphoma cells), 4 h. Put shortly:
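Cell line TMD8 (human ABC DLBCL), stably expressing tet-inducible CBG68-IkBa fusion and CBR; IMDM/0.5% FBS; cpd up to 46 uM; dox induction, 4 h, 37C/5% CO2; dual luminescence; green/red ratio; MG132 control.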

Setting [1] is: measured here: IkBa-CBG green luminescence.
[2] abbreviates: measured here: CBR red luminescence, cell number.

The list shows a part of the results. These are further read-outs of the screen, such as a control signal, another cell line or another target. No call is given for them. Most of these compounds were active or inconclusive in the main read-out, so they are no random draw. Words in brackets tell the shape of the fitted curve; partial curves, single points and poor fits give uncertain potencies.

This is an account of results in PubChem BioAssay AID493014 (National Center for Advancing Translational Sciences (NCATS), 2011).

The AC50 is the concentration giving half of the maximal activity seen.

With `Cc1cc(=O)n2cccc(O)c2n1`, under setting [1], the concentration at half-maximal activity (AC50) was 22.4 µM [falling, single point]. Turning to `C/C(=N\NC(=O)c1cccnc1)c1c(O)cc(C)oc1=O`, the AC50 under setting [2] is 18.4 µM [falling, partial curve]. With `O=S(=O)(c1ccc(F)c(Cl)c1)N1CCCC1`, the AC50 under setting [2] is 14.6 µM [rising, partial curve, poor fit]. For `Oc1[nH]c2ccccc2c1N=NC(=S)NCCc1ccccc1`, the AC50 under setting [2] is 29.1 µM [rising, single point] and the AC50 under setting [1] was 29.1 µM [falling, single point]. For the compound `O=C(O)CC1(CC(=O)Nc2ccc3sccc3c2)CCCCC1`, the concentration at half-maximal activity (AC50) under setting [2] was 11.2 µM [falling, partial curve]. Regarding `COc1ccc(C2(C(=O)Nc3ccc(C(=O)O)cc3)CCOCC2)cc1`, the AC50 under setting [2] was 0.92 µM [rising, partial curve, poor fit]. The same measure, in the same setting: the value for `CCOC(=O)c1cnc(SCC(=O)c2ccc(Cl)cc2)nc1N` was 5.17 µM [falling, full curve]. The same measure, in the same setting: the same measure for `COc1cc2c(cc1OC)C(c1ccccc1[N+](=O)[O-])N(C(C)=O)CC2` (configuration not stated): 15.8 µM [rising, partial curve, poor fit]. As for `Cc1ccc(C)c2[nH]c(=O)c(CN(Cc3nnnn3C3CCCCC3)CC3CCCO3)cc12` (configuration not stated), the AC50 under setting [2] was 35.5 µM [falling, single point]. The same measure, in the same setting: the same measure for `Cc1ccc(O)c(C(=O)c2cc(C#N)c(=O)n(C(C)c3ccccc3)c2)c1` (configuration not stated): 35.5 µM [falling, single point].

Turning to `CC(NC(=O)c1ccc([N+](=O)[O-])o1)C1CC2CCC1C2` (configuration not stated), the concentration at half-maximal activity (AC50) under setting [2] is 10.3 µM [falling, single point]. For the compound `Cc1cc2oc(=O)cc(CN3CCCc4ccccc43)c2cc1C`, the AC50 runs as follows: under setting [2], 22.4 µM [rising, single point]; under setting [1], 15.8 µM [falling, partial curve, poor fit]. As for `O=C(N/N=C/c1cn(-c2ccccc2)nc1-c1cccnc1)c1ccccc1`, the concentration at half-maximal activity (AC50) under setting [2] was 22.4 µM [falling, single point]. On to `NNC(=O)c1nnn(-c2nonc2N)c1-c1cccs1`, for which the AC50 under setting [2] was 0.562 µM [falling, full curve, poor fit].

For `CN(C)c1ccc(/C=C(/NC(=O)c2ccccc2)C(=O)N/N=C/c2ccc([N+](=O)[O-])c(O)c2)cc1`, under setting [2], the concentration at half-maximal activity (AC50) was 14.6 µM [falling, partial curve]. Regarding `Cc1nn(-c2ccc(Cl)cc2)c2[nH]c(=O)c(CNCc3ccc4c(c3)OCO4)cc12`, the AC50 under setting [2] was 35.5 µM [falling, partial curve, poor fit]. Same read-out and setting: the value for `CCCSc1ccc2nc(NC(=O)OC)[nH]c2c1` was 2.91 µM [rising, full curve]; that for `CCC(C)NC(=O)CSc1c2c(nc3ccccc13)CCCC2` (configuration not stated) was 14.1 µM [falling, partial curve].

`O=C(COC(=O)c1cccnc1Nc1ccccc1F)NCCN1C(=O)CSC1=O`: the concentration at half-maximal activity (AC50) under setting [2] is 16.4 µM [falling, single point]. For `COC(=O)c1scc(C)c1NC(=O)/C=C/C(=O)O`, the concentration at half-maximal activity (AC50) under setting [2] is 20 µM [falling, single point]. On to `CCc1ccc(C(=O)NN=C2CCCCCC2)s1`, for which the AC50 under setting [2] is 14.1 µM [falling, partial curve, poor fit]. As for `Cc1ccc(O)c(C(=O)/C=C/c2ccc3c(c2)OCCO3)c1`, the concentration at half-maximal activity (AC50) under setting [2] is 35.5 µM [falling, single point]. Same read-out and setting: the same measure for `CCC(c1nnnn1C1CCCCC1)N(Cc1ccco1)Cc1cc2ccc(OC)cc2[nH]c1=O` (configuration not stated): 35.5 µM [rising, partial curve, poor fit]; for `COc1cc(CC(=O)NCc2ccccn2)cc(OC)c1OC`: 32.6 µM [rising, single point]; for `COCCNc1nnc(SCC(=O)c2c[nH]c3ccccc23)s1`: 23.1 µM [falling, single point]. Still for that read-out and setting: the same measure for `O=C(Nc1ccc(OCC(F)(F)C(F)F)cc1)c1ccncc1`: 2.24 µM [rising, full curve].

`CC(C)C(=O)Nc1cccc(NC(=S)NC(=O)c2ccc([N+](=O)[O-])cc2)c1`: the half-maximal activity concentration (AC50) under setting [2] is 6.31 µM [rising, partial curve, poor fit]. Regarding `COc1ccc(CCNC(=O)c2cccc(NS(=O)(=O)c3ccccc3F)c2)cc1OC`, under setting [2], the AC50 is 35.5 µM [rising, single point].

Consider `CC(C)CNC(=S)Nc1ccc(F)cc1`, for which the half-maximal activity concentration (AC50) under setting [2] was 16.4 µM [rising, partial curve, poor fit]. Regarding `CCC(CC)C(=O)Nc1cccc(/C(C)=N/NC(=O)c2ccccc2Cl)c1`, under setting [2], the concentration at half-maximal activity (AC50) was 5.8 µM [falling, partial curve].

`CCCCn1c(=O)n(CC(=O)Nc2ccc(OC)c(Cl)c2)c(=O)c2c1nc(CO)n2CCC`: the half-maximal activity concentration (AC50) under setting [2] is 0.517 µM [rising, full curve, poor fit].

As to `CSc1ncccc1C(=O)Nc1ccc2nc(C)sc2c1`, the concentration at half-maximal activity (AC50) under setting [2] was 35.5 µM [falling, single point]. Still for that read-out and setting: the same measure for `Fc1cccc(Oc2nc3ccccc3n3cccc23)c1`: 29.1 µM [rising, single point]; for `CSc1ccc(NC(=O)Nc2ccccc2C(N)=O)cc1`: 11.2 µM [falling, partial curve]; for `CC1(C)CC(=O)C2=C(C1)OC(N)=C(C#N)C2C#Cc1ccccc1` (configuration not stated): 3.16 µM [falling, full curve, poor fit]. Consider `Cc1nc(NC(=O)COC(=O)/C=C/c2ccco2)c(Cl)cc1Cl`, for which the AC50 under setting [2] is 29.1 µM [rising, partial curve, poor fit]. For `COc1ccc(Nc2nc(C)cc(C)c2C#N)cc1`, the AC50 under setting [2] was 2.06 µM [falling, partial curve, poor fit]. Same read-out and setting: the same measure for `CCC(C)(C)NC(=O)C(c1ccc(OC)cc1)N(Cc1ccco1)C(=O)CCC(=O)Nc1cc(C)on1` (configuration not stated): 2.59 µM [falling, partial curve, poor fit]; for `CC(C)CC[n+]1ccccc1/C=C/c1ccc(N(C)C)cc1`: 20 µM [falling, partial curve, poor fit]; for `COC(=O)c1ccc(/C=N/Nc2nc(C)c(C)s2)cc1`: 0.251 µM [falling, full curve, poor fit]. Regarding `Cc1cccc([C@@H]2[C@@H]3C(=O)N(Cc4ccccc4)C(=O)[C@@H]3[C@]3(Cc4ccccc4)C(=O)N(c4cccc(F)c4)C(=O)N23)c1`, the concentration at half-maximal activity (AC50) under setting [2] is 5.8 µM [falling, partial curve]. As for `COc1ccccc1-n1cnnc1SCC(=O)Nc1nc(C)c(Cl)cc1Cl`, the half-maximal activity concentration (AC50) under setting [2] was 13 µM [falling, partial curve]. `O=C(CSc1nncc2ccccc12)Nc1ccc(C(=O)O)cc1`: the AC50 under setting [2] was 11.2 µM [falling, partial curve]. On to `O=C(Nc1ccc(F)c(Cl)c1)c1ccccc1`, for which the AC50 under setting [2] was 16.4 µM [falling, single point]. The same measure, in the same setting: the same measure for `O=C(Nc1ccc(C(F)(F)F)cc1)c1cccnc1N1CCOCC1`: 29.1 µM [falling, single point]; for `CN1CCN(C2=Cc3cc(Cl)ccc3Sc3cc(F)ccc32)CC1`: 18.4 µM [falling, single point].

In the case of `Cc1ccc(F)cc1NC(=O)CCC(=O)c1cccs1`, under setting [2], the AC50 was 29.1 µM [falling, single point]. Regarding `CCc1cccc2c(C(=O)CCl)c[nH]c12`, the AC50 under setting [2] is 18.4 µM [falling, partial curve, poor fit]. With `C#CC(=O)N(c1cccc(OC)c1)C(C(=O)NC1CCCC1)c1cccs1` (configuration not stated), the AC50 under setting [2] is 7.94 µM [falling, partial curve]. On the same count and under the same terms, the value for `Cc1nc2ccc(NC(=O)N3CCSCC3)cc2s1` was 14.6 µM [falling, partial curve, poor fit]; that for `CC(C)c1ccc(N(C(=O)c2ccc3c(c2)OCO3)C2C=CS(=O)(=O)C2)cc1` (configuration not stated) was 20 µM [falling, partial curve, poor fit]; that for `CCCCN(CC)CCNC(=O)CN1C(=O)COc2ccc(S(=O)(=O)N3CCCC3)cc21` was 32.6 µM [falling, partial curve, poor fit]. Still for that read-out and setting: the same measure for `Cc1ccc(OCc2cc(C(=O)NCC3COCCO3)no2)cc1C` (configuration not stated): 20 µM [falling, single point]; for `Cc1ccc(S(=O)(=O)Nc2ccc(NC(=O)c3cccnc3)cc2)cc1`: 6.31 µM [rising, single point]; for `CCOC(=O)c1cnc2c(-c3ccc(F)cc3)cnn2c1C(F)(F)F`: 8.91 µM [falling, partial curve]. On the same count and under the same terms, the value for `CCC(C)[C@H](NC(=O)C1CCN(C(=O)[C@H](Cc2ccccc2)NC(=O)OC(C)(C)C)CC1)C(=O)O` (some centres not stated) was 35.5 µM [falling, partial curve, poor fit]. As to `N#C/C(=C\c1ccc(O)c(Br)c1)C(=O)NCc1ccccc1`, the AC50 under setting [2] was 22.4 µM [falling, single point] and the half-maximal activity concentration (AC50) under setting [1] was 35.5 µM [rising, single point]. Regarding `CCCN(CCC)CCNc1c(NC2CCN(C(=O)OCC)CC2)c(=O)c1=O`, under setting [2], the half-maximal activity concentration (AC50) was 2.06 µM [rising, partial curve, poor fit]. On to `CC(=O)c1cccc(Nc2nc(-c3sc(C)nc3C)cs2)c1`, for which the AC50 under setting [2] was 2.51 µM [rising, partial curve, poor fit]. On the same count and under the same terms, the same measure for `CCOc1ccc(C(=O)Nc2cccc(-c3ccc(N4CCOCC4)nn3)c2)cc1OCC`: 20.6 µM [falling, single point]; for `COc1ccccc1Oc1ccc(N/C=C/C(=O)c2ccc(C)o2)cc1`: 35.5 µM [falling, single point]; for `CC(C)c1ccc(N=C(N)N=C(N)N)cc1`: 25.1 µM [falling, partial curve, poor fit]. On to `O=C(O)CCCCCNS(=O)(=O)c1c(Cl)cccc1Cl`, for which, under setting [1], the concentration at half-maximal activity (AC50) is 6.51 µM [rising, partial curve, poor fit]. Take `O=c1oc(-c2cccs2)nc2ccc(Br)cc12`: the concentration at half-maximal activity (AC50) under setting [2] was 3.55 µM [falling, full curve].
